No constants are given. Whether binding was seen depends on the method and setting. Binding calls can cover weak binding; strength is not graded here. Blank lines part the entries; values can stand above or below the binder they belong to.
Target: CENPF-2819-3114
Test: two-hybrid; LexA-based yeast two-hybrid growth assay in EGY48; MIRO1 construct as prey (pJG4-5), bait in pEG202; streaked on SC-Leu+Gal, 30 °C

binding: binds
B1: MIRO1-1-280 (domain or fragment, UniProt Q8IXI2 1-280)
chain: MKKDVRILLVGEPRVGKTSLIMSLVSEEFPEEVPPRAEEITIPADVTPERVPTHIVDYSEAEQSDEQLHQEISQANVICIVYAVNNKHSIDKVTSRWIPLINERTDKDSRLPLILVGNKSDLVEYSSMETILPIMNQYTEIETCVECSAKNLKNISELFYYAQKAVLHPTGPLYCPEEKEMKPACIKALTRIFKISDQDNDGTLNDAELNFFQRICFNTPLAPQALEDVKNVVRKHISDGVADSGLTLKGFLFLHTLFIQRGRHETTWTVLRRFGYDDDL

binding: no binding
B2: MIRO1-181-280 (domain or fragment, UniProt Q8IXI2 181-280)
chain: MKPACIKALTRIFKISDQDNDGTLNDAELNFFQRICFNTPLAPQALEDVKNVVRKHISDGVADSGLTLKGFLFLHTLFIQRGRHETTWTVLRRFGYDDDL

binding: no binding
B3: MIRO1-281-594 (domain or fragment, UniProt Q8IXI2 281-594)
chain: DLTPEYLFPLLKIPPDCTTELNHHAYLFLQSTFDKHDLDRDCALSPDELKDLFKVFPYIPWGPDVNNTVCTNERGWITYQGFLSQWTLTTYLDVQRCLEYLGYLGYSILTEQESQASAVTVTRDKKIDLQKKQTQRNVFRCNVIGVKNCGKSGVLQALLGRNLMRQKKIREDHKSYYAINTVYVYGQEKYLLLHDISESEFLTEAEIICDVVCLVYDVSNPKSFEYCARIFKQHFMDSRIPCLIVAAKSDLHEVKQEYSISPTDFCRKHKMPPPQAFTCNTADAPSKDIFVKLTTMAMYPHVTQADLKSSTFWL

binding: no binding
B4: MIRO1-181-594 (domain or fragment, UniProt Q8IXI2 181-594)
chain: MKPACIKALTRIFKISDQDNDGTLNDAELNFFQRICFNTPLAPQALEDVKNVVRKHISDGVADSGLTLKGFLFLHTLFIQRGRHETTWTVLRRFGYDDDLDLTPEYLFPLLKIPPDCTTELNHHAYLFLQSTFDKHDLDRDCALSPDELKDLFKVFPYIPWGPDVNNTVCTNERGWITYQGFLSQWTLTTYLDVQRCLEYLGYLGYSILTEQESQASAVTVTRDKKIDLQKKQTQRNVFRCNVIGVKNCGKSGVLQALLGRNLMRQKKIREDHKSYYAINTVYVYGQEKYLLLHDISESEFLTEAEIICDVVCLVYDVSNPKSFEYCARIFKQHFMDSRIPCLIVAAKSDLHEVKQEYSISPTDFCRKHKMPPPQAFTCNTADAPSKDIFVKLTTMAMYPHVTQADLKSSTFWL

binding: no binding
B5: MIRO1-281-400 (domain or fragment, UniProt Q8IXI2 281-400)
chain: DLTPEYLFPLLKIPPDCTTELNHHAYLFLQSTFDKHDLDRDCALSPDELKDLFKVFPYIPWGPDVNNTVCTNERGWITYQGFLSQWTLTTYLDVQRCLEYLGYLGYSILTEQESQASAVT

binding: binds
B6: MIRO1-1-400 (domain or fragment, UniProt Q8IXI2 1-400)
chain: MKKDVRILLVGEPRVGKTSLIMSLVSEEFPEEVPPRAEEITIPADVTPERVPTHIVDYSEAEQSDEQLHQEISQANVICIVYAVNNKHSIDKVTSRWIPLINERTDKDSRLPLILVGNKSDLVEYSSMETILPIMNQYTEIETCVECSAKNLKNISELFYYAQKAVLHPTGPLYCPEEKEMKPACIKALTRIFKISDQDNDGTLNDAELNFFQRICFNTPLAPQALEDVKNVVRKHISDGVADSGLTLKGFLFLHTLFIQRGRHETTWTVLRRFGYDDDLDLTPEYLFPLLKIPPDCTTELNHHAYLFLQSTFDKHDLDRDCALSPDELKDLFKVFPYIPWGPDVNNTVCTNERGWITYQGFLSQWTLTTYLDVQRCLEYLGYLGYSILTEQESQASAVT

binding: no binding
B7: MIRO1-181-400 (domain or fragment, UniProt Q8IXI2 181-400)
chain: MKPACIKALTRIFKISDQDNDGTLNDAELNFFQRICFNTPLAPQALEDVKNVVRKHISDGVADSGLTLKGFLFLHTLFIQRGRHETTWTVLRRFGYDDDLDLTPEYLFPLLKIPPDCTTELNHHAYLFLQSTFDKHDLDRDCALSPDELKDLFKVFPYIPWGPDVNNTVCTNERGWITYQGFLSQWTLTTYLDVQRCLEYLGYLGYSILTEQESQASAVT

binding: binds
B8: MIRO1-1-594 (domain or fragment, UniProt Q8IXI2 1-594)
chain: MKKDVRILLVGEPRVGKTSLIMSLVSEEFPEEVPPRAEEITIPADVTPERVPTHIVDYSEAEQSDEQLHQEISQANVICIVYAVNNKHSIDKVTSRWIPLINERTDKDSRLPLILVGNKSDLVEYSSMETILPIMNQYTEIETCVECSAKNLKNISELFYYAQKAVLHPTGPLYCPEEKEMKPACIKALTRIFKISDQDNDGTLNDAELNFFQRICFNTPLAPQALEDVKNVVRKHISDGVADSGLTLKGFLFLHTLFIQRGRHETTWTVLRRFGYDDDLDLTPEYLFPLLKIPPDCTTELNHHAYLFLQSTFDKHDLDRDCALSPDELKDLFKVFPYIPWGPDVNNTVCTNERGWITYQGFLSQWTLTTYLDVQRCLEYLGYLGYSILTEQESQASAVTVTRDKKIDLQKKQTQRNVFRCNVIGVKNCGKSGVLQALLGRNLMRQKKIREDHKSYYAINTVYVYGQEKYLLLHDISESEFLTEAEIICDVVCLVYDVSNPKSFEYCARIFKQHFMDSRIPCLIVAAKSDLHEVKQEYSISPTDFCRKHKMPPPQAFTCNTADAPSKDIFVKLTTMAMYPHVTQADLKSSTFWL

binding: no binding
B9: MIRO1-401-594 (domain or fragment, UniProt Q8IXI2 401-594)
chain: VTRDKKIDLQKKQTQRNVFRCNVIGVKNCGKSGVLQALLGRNLMRQKKIREDHKSYYAINTVYVYGQEKYLLLHDISESEFLTEAEIICDVVCLVYDVSNPKSFEYCARIFKQHFMDSRIPCLIVAAKSDLHEVKQEYSISPTDFCRKHKMPPPQAFTCNTADAPSKDIFVKLTTMAMYPHVTQADLKSSTFWL
